# In patent US7589219B2, “2,5-bis-diamine-[1,4]benzoquinonic derivatives, useful for the treatment of alzheimer's disease, method for preparing them and intermediates of said method” (priority 2002, dated 2009):
# At least one structure is not confirmed: it was looked up by name or label, or the drawing left a doubt.
# Columns and labels:
# [1] = test system: anti-NGF transgenic mice (AD11); assay: Immunohistochemistry and neurostereology in anti-NGF transgenic mice (AD11); assay type: in vivo, mouse; details: for number of neurons labelled with antibodies against phospho-tau (entorhinal cortex): AD11 mice
# [2] = test system: AD11 mice; assay: Object recognition test in AD11 mice; assay type: in vivo, mouse; details: oral 3.5 mg/kg/day from 2 months until 6 months of age (FIG. 21)
smiles,measurement,setting,value
"COc1ccc2c3c1O[C@H]1C[C@@H](O)C=C[C@@]31CCN(C)C2 [Galantamine, reference compound]",extracellular deposition of APP,[1]; 6 month-old AD11 mice (FIG. 19),reduced the extracellular deposition of APP
same,number of neurons labelled with antibodies against phospho-tau (entorhinal cortex),[1]; 15 days starting at 1.5 months of age (FIG. 17),ineffective
same,number of neurons labelled with antibodies against phospho-tau (entorhinal cortex),[1]; 15 days starting at 6 months of age (FIG. 18),ineffective
same,"behavioural deficit, object recognition test (discrimination index)",[2],marked amelioration of the behavioural deficit
